The source of these data is patent US20060264603A1.

The chains behind the UniProt entries cited, without tags or fusion partners. Residues count along the entry.
UniProt P03952, residues 20-638: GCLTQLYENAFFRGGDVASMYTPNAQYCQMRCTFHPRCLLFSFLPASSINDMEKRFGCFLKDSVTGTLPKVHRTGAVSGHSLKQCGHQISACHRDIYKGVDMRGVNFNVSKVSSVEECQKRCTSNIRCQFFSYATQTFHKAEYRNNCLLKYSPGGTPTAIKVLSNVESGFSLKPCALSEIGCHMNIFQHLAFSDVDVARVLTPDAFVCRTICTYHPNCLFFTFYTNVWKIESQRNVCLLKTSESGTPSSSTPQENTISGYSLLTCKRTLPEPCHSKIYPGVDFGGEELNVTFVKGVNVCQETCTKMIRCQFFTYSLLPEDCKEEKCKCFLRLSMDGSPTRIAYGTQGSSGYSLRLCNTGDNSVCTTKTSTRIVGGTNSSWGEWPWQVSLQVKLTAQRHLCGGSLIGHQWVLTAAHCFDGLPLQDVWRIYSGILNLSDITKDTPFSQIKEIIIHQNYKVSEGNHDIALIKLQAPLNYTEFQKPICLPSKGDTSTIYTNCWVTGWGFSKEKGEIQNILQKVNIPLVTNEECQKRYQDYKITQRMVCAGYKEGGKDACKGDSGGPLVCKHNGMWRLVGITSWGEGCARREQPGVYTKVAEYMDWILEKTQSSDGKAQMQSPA

B1: KKII/3#1 (designed binder)
chain: MHSFCAFKADDGHCKASLPRFFFNIFTRQCEEFIYGGCEGNQNRFESLEECKKMCTRD
B2: KKII/3#3 (designed binder)
chain: B1 chain with S17N, L18H, P19Q, I34T, E39G
B3: KKII/3#2 (designed binder)
chain: B1 chain with H13P, S17N, L18H, P19L, I34S, E39G
B4: KKII/3#6 (designed binder)
chain: B1 chain with S17N, L18H, P19Q, I34S, E39G
B5: KKII/3#7 (designed binder)
chain: B1 chain with S17N, L18H, P19Q, I34S, E39G
B6: KKII/3#4 (designed binder)
chain: B1 chain with S17N, L18H, P19Q, E32Q, I34T, E39A
B7: KKII/3#10 (designed binder)
chain: B1 chain with A16G, S17A, L18H, P19L
B8: KKII/3#9 (designed binder)
chain: B1 chain with S17N, L18H, P19Q, I34S, E39G
B9: KKII/3#5 (designed binder)
chain: B1 chain with E39G
B10: KKI/3 (b) (designed binder)
chain: B1 chain with H13P, S17I, L18H, P19L
B11: KKII/3#8 (designed binder)
chain: B1 chain with S17N, L18H, P19Q, I34S, E39G
B12: KKI/3 (a) (designed binder)
chain: B1 chain with H13R, A16G, S17A, L18H, P19L

Where a chain is given by its changes, count along the chain named. Results are given in words; binding and its absence hold for the method and conditions named. Some results given as binding are weak or reduced against the parent protein; the word gives no strength.

One assay concerns the target human plasma Kallikrein (Calbiochem, San Diego, Calif., # 420302) (human) (UniProt P03952). Nature of the assay: phage display selection on kallikrein beads.
As to B1, the binding entry is on record as “binds”.

As for B2, the binding entry is reported as “binds”.

Take B3: the binding result was “binds”.

In the case of B4, the binding result is listed as “binds”.

B5: the binding result was “binds”.

As for B6, the binding entry is “binds”.

For B7, the binding entry is “binds”.

As for B8, the binding entry is on record as “binds”.

Take B9: the binding result is on record as “binds”.

B10: the binding result is listed as “binds”.

In the case of B11, the binding entry is “binds”.

As for B12, the binding entry was “binds”.

The target is the same in another assay. Briefly: phage display selection on kallikrein beads, first phase.
As to B10, the binding result is given as “binds”.

Take B12: the binding entry is recorded as “binds”.

The target is the same in a further assay. Nature of the assay: phage display selection on human plasma kallikrein-agarose beads, two phases.
On to B1, for which the binding result is listed as “binds”.

For B2, the binding result is listed as “binds”.

Turning to B3, the binding result is on record as “binds”.

Regarding B4, the binding result is listed as “binds”.

Take B5: the binding result is on record as “binds”.

Consider B6, for which the binding entry is “binds”.

For the molecule B7, the binding result is recorded as “binds”.

With B8, the binding result is “binds”.

Regarding B9, the binding result is “binds”.

For the molecule B11, the binding entry is given as “binds”.
